According to article PMC12694305:
Results are given in words; binding and its absence hold for the method and conditions named. Some entries that bind do so weakly or less than the wild type. Where a sequence is shown, tags or fusion partners need not be part of it.

Target: T1, GST-NCOA4 (UniProt Q5U4H9)
T1 sequence: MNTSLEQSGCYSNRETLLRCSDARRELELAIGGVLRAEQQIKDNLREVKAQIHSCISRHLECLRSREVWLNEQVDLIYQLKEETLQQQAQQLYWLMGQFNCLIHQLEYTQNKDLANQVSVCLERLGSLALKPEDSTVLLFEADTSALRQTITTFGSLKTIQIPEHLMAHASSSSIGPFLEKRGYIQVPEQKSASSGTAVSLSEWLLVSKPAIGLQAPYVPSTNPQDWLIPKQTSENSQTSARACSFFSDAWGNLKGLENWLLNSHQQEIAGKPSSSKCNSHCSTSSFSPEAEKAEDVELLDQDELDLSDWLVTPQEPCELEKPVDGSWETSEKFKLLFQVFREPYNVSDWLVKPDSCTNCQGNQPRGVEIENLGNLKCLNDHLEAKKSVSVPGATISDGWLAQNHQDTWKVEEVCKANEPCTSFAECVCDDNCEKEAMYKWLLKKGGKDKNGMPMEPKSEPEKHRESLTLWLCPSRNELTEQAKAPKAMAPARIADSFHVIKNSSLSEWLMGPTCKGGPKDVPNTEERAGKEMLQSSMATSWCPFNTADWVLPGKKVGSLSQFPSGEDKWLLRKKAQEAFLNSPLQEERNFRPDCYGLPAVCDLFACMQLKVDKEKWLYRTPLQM
Experiment: pull-down; purified GST-tagged bait and His-tagged prey with glutathione-sepharose beads; 50 mM Tris-HCl pH 7.5, 150 mM NaCl, 1 mM EDTA, 0.1% NP-40, 10% glycerol; 4 °C, 2 h; Western blot with anti-His and anti-GST; both purified

B1: His-FTMT (protein, UniProt Q9D5H4 50-237)
chain: ASVASSQDSTRPSRVRQNFHPDSEAAINRQINLELYASYVYLSMAYYFSRDDVALYNFSKYFLRQSLEEREHAEKLMKLQNQRGGRICLQDIKKPDKDDWECGLRAMECALLLEKNVNQSLLDLHTLASEKGDPHLCDFLETHYLHEQVKSIKELGDHVHNLVTMGAPAAGLAEYLFDKHTLGSESKH
B1 was tested, and the binding was “binds”.
